Data as given in article PMC5805777.
These are yes or no findings as the source states them, for the method shown. Some entries that bind do so weakly or less than the wild type.

Protein sequences, listed by entry. Tags and fused reporters are not part of them.
UniProt P0A6F5: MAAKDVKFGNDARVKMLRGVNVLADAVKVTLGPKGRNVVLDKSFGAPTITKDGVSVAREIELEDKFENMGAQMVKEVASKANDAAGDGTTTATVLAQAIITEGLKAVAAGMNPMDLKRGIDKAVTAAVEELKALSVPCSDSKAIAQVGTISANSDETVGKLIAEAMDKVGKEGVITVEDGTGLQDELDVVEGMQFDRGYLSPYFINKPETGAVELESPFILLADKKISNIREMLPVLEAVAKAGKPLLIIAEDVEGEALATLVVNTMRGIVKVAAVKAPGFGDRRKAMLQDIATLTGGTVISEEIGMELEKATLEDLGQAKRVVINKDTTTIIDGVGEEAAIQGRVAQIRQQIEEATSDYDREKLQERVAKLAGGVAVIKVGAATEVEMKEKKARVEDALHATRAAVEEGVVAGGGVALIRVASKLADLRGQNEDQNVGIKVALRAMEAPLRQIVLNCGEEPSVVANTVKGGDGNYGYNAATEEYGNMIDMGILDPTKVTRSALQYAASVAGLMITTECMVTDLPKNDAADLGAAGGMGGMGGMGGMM

Target: T1, recombinant Sirt4 (residues 29-314) (human) (UniProt Q9Y6E7)
T1 sequence: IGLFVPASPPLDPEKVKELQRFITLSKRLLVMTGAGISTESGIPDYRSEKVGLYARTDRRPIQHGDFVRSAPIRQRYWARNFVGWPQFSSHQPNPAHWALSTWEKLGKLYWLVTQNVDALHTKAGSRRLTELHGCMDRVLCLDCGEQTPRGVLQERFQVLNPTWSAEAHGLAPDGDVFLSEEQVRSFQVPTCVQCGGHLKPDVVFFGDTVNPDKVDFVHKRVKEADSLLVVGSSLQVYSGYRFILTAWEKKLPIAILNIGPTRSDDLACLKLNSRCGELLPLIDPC
Test: co-purification; GST-Sirt4 co-expressed with GroEL/GroES/Tig in E. coli; Glutathione Sepharose 4B, PreScission cleavage, anion exchange column; GroEL stayed with Sirt4

binding: binds
Substance: GroEL (from UniProt P0A6F5 1-548)
